No constants are given. Whether binding was seen depends on the method and setting. In cells and extracts the contact can be indirect. A yes stands for co-enrichment or nearness to the bait. Other partners may have been found.

Sequences of proteins named here, by UniProt entry; tags and fusion partners are left off.
UniProt P48722: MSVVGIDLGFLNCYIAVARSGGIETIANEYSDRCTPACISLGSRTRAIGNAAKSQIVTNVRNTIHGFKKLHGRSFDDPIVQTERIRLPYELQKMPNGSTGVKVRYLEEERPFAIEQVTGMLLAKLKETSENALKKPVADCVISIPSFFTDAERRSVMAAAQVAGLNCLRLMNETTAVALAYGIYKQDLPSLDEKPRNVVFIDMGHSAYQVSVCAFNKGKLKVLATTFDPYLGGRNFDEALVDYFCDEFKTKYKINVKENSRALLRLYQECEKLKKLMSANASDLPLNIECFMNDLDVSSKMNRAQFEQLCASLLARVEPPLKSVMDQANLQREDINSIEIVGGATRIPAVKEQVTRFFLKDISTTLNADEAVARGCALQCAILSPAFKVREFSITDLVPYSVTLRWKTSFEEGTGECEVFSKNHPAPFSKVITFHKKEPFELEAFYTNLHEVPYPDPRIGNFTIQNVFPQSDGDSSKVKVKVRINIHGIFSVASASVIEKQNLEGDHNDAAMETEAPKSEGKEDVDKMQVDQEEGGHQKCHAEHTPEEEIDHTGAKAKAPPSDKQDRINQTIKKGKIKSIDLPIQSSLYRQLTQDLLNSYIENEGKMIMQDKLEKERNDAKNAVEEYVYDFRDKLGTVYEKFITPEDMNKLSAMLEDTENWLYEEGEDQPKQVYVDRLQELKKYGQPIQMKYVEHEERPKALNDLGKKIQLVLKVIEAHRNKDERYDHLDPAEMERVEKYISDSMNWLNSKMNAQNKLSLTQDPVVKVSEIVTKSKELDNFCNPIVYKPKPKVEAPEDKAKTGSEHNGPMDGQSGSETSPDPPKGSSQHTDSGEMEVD
UniProt P00342: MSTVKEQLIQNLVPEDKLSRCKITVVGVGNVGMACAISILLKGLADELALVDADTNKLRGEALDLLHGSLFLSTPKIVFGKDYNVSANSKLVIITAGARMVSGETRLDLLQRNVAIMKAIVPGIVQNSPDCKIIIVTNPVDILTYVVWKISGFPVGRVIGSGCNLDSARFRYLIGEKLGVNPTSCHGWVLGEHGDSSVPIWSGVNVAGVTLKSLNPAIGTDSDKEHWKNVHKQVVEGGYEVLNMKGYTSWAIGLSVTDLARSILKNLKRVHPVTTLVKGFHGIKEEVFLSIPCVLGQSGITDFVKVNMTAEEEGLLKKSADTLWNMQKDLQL
UniProt Q61166: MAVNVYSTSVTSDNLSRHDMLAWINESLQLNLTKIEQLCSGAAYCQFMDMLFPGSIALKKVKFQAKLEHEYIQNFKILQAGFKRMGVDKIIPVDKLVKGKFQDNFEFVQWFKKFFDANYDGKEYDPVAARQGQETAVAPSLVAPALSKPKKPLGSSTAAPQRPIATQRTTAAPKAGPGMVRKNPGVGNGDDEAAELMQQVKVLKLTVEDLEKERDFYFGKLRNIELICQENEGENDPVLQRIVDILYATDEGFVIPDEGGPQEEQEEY

The target in the experiment is T1, recombinant RABL2 (isoform 2), conjugated to agarose (mouse) (UniProt E9Q9D5).
T1 sequence: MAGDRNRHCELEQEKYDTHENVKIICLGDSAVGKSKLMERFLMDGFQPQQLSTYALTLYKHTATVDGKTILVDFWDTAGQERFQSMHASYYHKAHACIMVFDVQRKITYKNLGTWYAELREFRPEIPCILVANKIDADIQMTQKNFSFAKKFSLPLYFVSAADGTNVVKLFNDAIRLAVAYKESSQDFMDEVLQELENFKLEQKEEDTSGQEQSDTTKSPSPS
Description: affinity purification with mass spectrometry; recombinant RABL2 on agarose loaded with GTP (compared with GDP-loaded), incubated with adult mouse testis extracts; bands preferentially bound to GTP-RABL2 cut from 12% SDS-PAGE gels, nano-LC ESI MS/MS; only the target purified.
In the case of HSPA4L (from UniProt P48722 1-838), the binding result is “binds”.

LDHC (from UniProt P00342 1-332): the binding entry is on record as “binds”.

Take “microtubule plus end trafficking protein EB1 (from UniProt Q61166 1-268)”: the binding entry is recorded as “binds”.

The values above are taken from paper PMC3464206.
